Experimental data taken from patent publication US12612429 (dated 2026).

Experiment: general procedure: solution-phase peptide synthesis; HATU/DIEA
[1] = coupling step, TFA salt or formic acid salt
[2] = coupling step, formic acid salt
[3] = late stage modification step, TFA salt or formic acid salt
[4] = late stage modification step, TFA salt
[5] = late stage modification step, formic acid salt

## Fmoc-MeVal-Abu(3-N3)-Dil-Dap-Phe-OMe
[1]
  step yield: 77%

## Dov-Dpr(Fmoc)-Dil-Dap-Phe-OMe
[1]
  step yield: 56%

## methyl ((2R,3R)-3-((S)-1-((3R,4S,5S)-4-((S)-3-azido-N-methyl-2-((S)-3-methyl-2-(methylamino)butanamido)propanamido)-3-methoxy-5-methylheptanoyl)pyrrolidin-2-yl)-3-methoxy-2-methylpropanoyl)-L-phenylalaninate
[1]
  step yield: 1%

## Fmoc-MeVal-Abu(3-N3)-Dil-Dap-Phe-OtBu
[2]
  step yield: 97%

## Dov-Abu(3-N3)-Dil-Dap-Phe-NH2
[3]
  step yield: 33%

## ((2R,3R)-3-((S)-1-((3R,4S,5S)-4-((S)-2-((S)-2-(dimethylamino)-3-hydroxypropanamido)-N,3-dimethylbutanamido)-3-methoxy-5-methylheptanoyl)pyrrolidin-2-yl)-3-methoxy-2-methylpropanoyl)-L-phenylalanine
[3]
  step yield: 31%

## Dov-Ser(Bzl)-Dil-Dap-2-(2-pyridyl)ethylamine
Coupling step, TFA salt
  step yield: 68%

## (S)-2-(dimethylamino)-N—((S)-3-hydroxy-1-(((3R,4S,5S)-3-methoxy-1-((S)-2-((1R,2R)-1-methoxy-2-methyl-3-oxo-3-((2-(pyridin-2-yl)ethyl)amino)propyl)pyrrolidin-1-yl)-5-methyl-1-oxoheptan-4-yl)(methyl)amino)-1-oxopropan-2-yl)-3-methylbutanamide
[4]
  step yield: 5%

## (S)-2-((2R,3R)-3-((S)-1-((3R,4S,5S)-4-((2S,3R)-2-((S)-2-(dimethylamino)-3-methylbutanamido)-3-hydroxy-N-methylbutanamido)-3-methoxy-5-methylheptanoyl)pyrrolidin-2-yl)-3-methoxy-2-methylpropanamido)-3-phenylpropanoic acid
[3]
  step yield: 47%

## (S)-2-((2R,3R)-3-((S)-1-((3R,4S,5S)-4-((2S,3S)-3-azido-2-((S)-2-(dimethylamino)-3-methylbutanamido)-N-methylbutanamido)-3-methoxy-5-methylheptanoyl)pyrrolidin-2-yl)-3-methoxy-2-methylpropanamido)-3-phenylpropanoic acid
[3]
  step yield: 93%

## Dov-Dab(Fmoc)-Dil-Dap-2-(4-chlorophenyl)ethylamine
[1]
  step yield: 61%

## (S)-methyl 2-((2R,3R)-3-((S)-1-((3R,4S,5S)-4-((R)-2-((S)-2-(dimethylamino)-3-methylbutanamido)-3-mercapto-N-methylpropanamido)-3-methoxy-5-methylheptanoyl)pyrrolidin-2-yl)-3-methoxy-2-methylpropanamido)-3-phenylpropanoate
[3]
  step yield: 3%

## Dov-Thr(Bzl)-Dil-Dap-2-(2-pyridyl)ethylamine
Coupling step, TFA salt
  step yield: 63%

## methyl ((2R,3R)-3-((S)-1-((3R,4S,5S)-4-((S)-2-((S)-2-(dimethylamino)-3-methylbutanamido)-N-methylpent-4-ynamido)-3-methoxy-5-methylheptanoyl)pyrrolidin-2-yl)-3-methoxy-2-methylpropanoyl)-L-phenylalaninate
[1]
  step yield: 3%

## Dov-Dpr(Fmoc)-Dil-Dap-2-(2-pyridyl)ethylamine
Coupling step, TFA salt
  step yield: 20%

## tert-butyl ((2R,3R)-3-((S)-1-((3R,4S,5S)-4-((2S,3S)-3-azido-2-((S)-2-(dimethylamino)-3-methylbutanamido)-N-methylbutanamido)-3-methoxy-5-methylheptanoyl)pyrrolidin-2-yl)-3-methoxy-2-methylpropanoyl)-L-phenylalaninate
[2]
  step yield: 72%

## methyl ((2R,3R)-3-((S)-1-((3R,4S,5S)-4-((2S,3S)-3-azido-2-((S)-2-(dimethylamino)-3-methylbutanamido)-N-methylbutanamido)-3-methoxy-5-methylheptanoyl)pyrrolidin-2-yl)-3-methoxy-2-methylpropanoyl)-L-isoleucinate
[1]
  step yield: 60%

## (2S,3S)-3-azido-2-((S)-2-(dimethylamino)-3-methylbutanamido)-N-((3R,4S,5S)-3-methoxy-1-((S)-2-((1R,2R)-1-methoxy-2-methyl-3-oxo-3-((2-(pyridin-2-yl)ethyl)amino)propyl)pyrrolidin-1-yl)-5-methyl-1-oxoheptan-4-yl)-N-methylbutanamide
[1]
  step yield: 29%

## (S)-2-((S)-2-(aminooxy)-3-methylbutanamido)-N-((3R,4S,5S)-3-methoxy-1-((S)-2-((1R,2R)-1-methoxy-2-methyl-3-oxo-3-((2-(pyridin-2-yl)ethyl)amino)propyl)pyrrolidin-1-yl)-5-methyl-1-oxoheptan-4-yl)-N,3-dimethylbutanamide
[4]
  step yield: 43%

## (S)-4-amino-N-((3R,4S,5S)-1-((S)-2-((1R,2R)-3-((2-chlorophenethyl)amino)-1-methoxy-2-methyl-3-oxopropyl)pyrrolidin-1-yl)-3-methoxy-5-methyl-1-oxoheptan-4-yl)-2-((S)-2-(dimethylamino)-3-methylbutanamido)-N-methylbutanamide
[3]
  step yield: 34%

## Dov-Asp(OBzl)-Dil-Dap-Phe-OMe
[1]
  step yield: 77%

## (2S,3S)-3-amino-2-((S)-2-(dimethylamino)-3-methylbutanamido)-N-((3R,4S,5S)-3-methoxy-1-((S)-2-((1R,2R)-1-methoxy-2-methyl-3-oxo-3-(phenethylamino)propyl)pyrrolidin-1-yl)-5-methyl-1-oxoheptan-4-yl)-N-methylbutanamide
[5]
  step yield: 41%

## N,N-dimethylThr(Bzl)-Val-Dil-Dap-Phe-OMe
[1]
  step yield: 62%

## (S)-methyl 2-((2R,3R)-3-((S)-1-((3R,4S,5S)-4-((S)-3-azido-2-((S)-2-(dimethylamino)-3-methylbutanamido)-N-methylpropanamido)-3-methoxy-5-methylheptanoyl)pyrrolidin-2-yl)-3-methoxy-2-methylpropanamido)-3-phenylpropanoate
Coupling step, TFA salt
  step yield: 7%

## (2S,3S)-3-azido-N-((3R,4S,5S)-3-methoxy-1-((S)-2-((1R,2R)-1-methoxy-2-methyl-3-oxo-3-(((S)-2-phenyl-1-(1H-tetrazol-5-yl)ethyl)amino)propyl)pyrrolidin-1-yl)-5-methyl-1-oxoheptan-4-yl)-N-methyl-2-((S)-3-methyl-2-(methylamino)butanamido)butanamide
[4]
  step yield: 5%

## tert-butyl ((2R,3R)-3-((S)-1-((3R,4S,5S)-4-((2S,3S)-3-azido-N-methyl-2-((S)-3-methyl-2-(methylamino)butanamido)butanamido)-3-methoxy-5-methylheptanoyl)pyrrolidin-2-yl)-3-methoxy-2-methylpropanoyl)-L-phenylalaninate
[2]
  step yield: 5%

## (2S,3S)-3-azido-2-((S)-2-(dimethylamino)-3-methylbutanamido)-N-((3R,4S,5S)-3-methoxy-1-((S)-2-((1R,2R)-1-methoxy-2-methyl-3-oxo-3-(((S)-2-phenyl-1-(thiazol-2-yl)ethyl)amino)propyl)pyrrolidin-1-yl)-5-methyl-1-oxoheptan-4-yl)-N-methylbutanamide
Coupling step, TFA salt
  step yield: 18%

## Dov-Thr(Bzl)-Dil-Dap-Phe-OtBu
[1]
  step yield: 78%

## (2S,3S)-3-amino-2-((S)-2-(dimethylamino)-3-methylbutanamido)-N-((3R,4S,5S)-3-methoxy-1-((S)-2-((1R,2R)-1-methoxy-2-methyl-3-oxo-3-(((S)-2-phenyl-1-(thiazol-2-yl)ethyl)amino)propyl)pyrrolidin-1-yl)-5-methyl-1-oxoheptan-4-yl)-N-methylbutanamide
[5]
  step yield: 47%

## methyl ((2R,3R)-3-((S)-1-((3R,4S,5S)-4-((2S,3S)-3-azido-N-methyl-2-((S)-3-methyl-2-(methylamino)butanamido)butanamido)-3-methoxy-5-methylheptanoyl)pyrrolidin-2-yl)-3-methoxy-2-methylpropanoyl)-L-phenylalaninate
[3]
  step yield: 103%

## (S)—N—((S)-3-amino-1-(((3R,4S,5S)-3-methoxy-1-((S)-2-((1R,2R)-1-methoxy-2-methyl-3-oxo-3-((2-(pyridin-2-yl)ethyl)amino)propyl)pyrrolidin-1-yl)-5-methyl-1-oxoheptan-4-yl)(methyl)amino)-1-oxopropan-2-yl)-2-(dimethylamino)-3-methylbutanamide
[4]
  step yield: 75%

## (S)-methyl 2-((2R,3R)-3-((S)-1-((3R,4S,5S)-4-((2S,3R)-2-((S)-2-(dimethylamino)-3-methylbutanamido)-3-hydroxy-N-methylbutanamido)-3-methoxy-5-methylheptanoyl)pyrrolidin-2-yl)-3-methoxy-2-methylpropanamido)-3-phenylpropanoate
[4]
  step yield: 43%

## Dov-Dab(Fmoc)-Dil-Dap-(1R,2S)-(−)-Norephedrine
[1]
  step yield: 81%

## (S)-2-((2R,3R)-3-((S)-1-((3R,4S,5S)-4-((S)-2-((S)-2-(dimethylamino)-3-methylbutanamido)-3-hydroxy-N-methylpropanamido)-3-methoxy-5-methylheptanoyl)pyrrolidin-2-yl)-3-methoxy-2-methylpropanamido)-3-phenylpropanoic acid
[3]
  step yield: 28%

## (S)-methyl 2-((2R,3R)-3-((S)-1-((3R,4S,5S)-4-((S)-3-amino-2-((S)-2-(dimethylamino)-3-methylbutanamido)-N-methylpropanamido)-3-methoxy-5-methylheptanoyl)pyrrolidin-2-yl)-3-methoxy-2-methylpropanamido)-3-phenylpropanoate
[5]
  step yield: 50%

## (2S,3S)-3-amino-N-((3R,4S,5S)-1-((S)-2-((1R,2R)-3-((2-chlorophenethyl)amino)-1-methoxy-2-methyl-3-oxopropyl)pyrrolidin-1-yl)-3-methoxy-5-methyl-1-oxoheptan-4-yl)-2-((S)-2-(dimethylamino)-3-methylbutanamido)-N-methylbutanamide
[5]
  step yield: 30%

## tert-butyl ((2R,3R)-3-((S)-1-((3R,4S,5S)-4-((2S,3S)-3-amino-2-((S)-2-(dimethylamino)-3-methylbutanamido)-N-methylbutanamido)-3-methoxy-5-methylheptanoyl)pyrrolidin-2-yl)-3-methoxy-2-methylpropanoyl)-L-phenylalaninate
[5]
  step yield: 70%
